Reference: the supplement of paper PMC12823440, “Inhibitors supercharge kinase turnover through native proteolytic circuits” (Nature, 2025)
Where a name gives a salt, the structure may show the parent alone. This is one part of the list. Hit calls seldom repeat between salt and free forms of one compound.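 Kinases were expressed as nanoluciferase fusions in K562 cells and luminescence was read every 4 h between 2 and 18 h as percent of control, DMSO set to 100% and a positive control to 0%. A time point counts as decreased when the signal drops significantly (2 sigma). The hit call is the authors' own, does not follow from the count of time points alone, and its rule is not shown.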

Sequences of proteins named here, by UniProt entry; tags and fusion partners are left off. A change or cut given only in a name is not applied to a line headed by its entry.
UniProt P10398: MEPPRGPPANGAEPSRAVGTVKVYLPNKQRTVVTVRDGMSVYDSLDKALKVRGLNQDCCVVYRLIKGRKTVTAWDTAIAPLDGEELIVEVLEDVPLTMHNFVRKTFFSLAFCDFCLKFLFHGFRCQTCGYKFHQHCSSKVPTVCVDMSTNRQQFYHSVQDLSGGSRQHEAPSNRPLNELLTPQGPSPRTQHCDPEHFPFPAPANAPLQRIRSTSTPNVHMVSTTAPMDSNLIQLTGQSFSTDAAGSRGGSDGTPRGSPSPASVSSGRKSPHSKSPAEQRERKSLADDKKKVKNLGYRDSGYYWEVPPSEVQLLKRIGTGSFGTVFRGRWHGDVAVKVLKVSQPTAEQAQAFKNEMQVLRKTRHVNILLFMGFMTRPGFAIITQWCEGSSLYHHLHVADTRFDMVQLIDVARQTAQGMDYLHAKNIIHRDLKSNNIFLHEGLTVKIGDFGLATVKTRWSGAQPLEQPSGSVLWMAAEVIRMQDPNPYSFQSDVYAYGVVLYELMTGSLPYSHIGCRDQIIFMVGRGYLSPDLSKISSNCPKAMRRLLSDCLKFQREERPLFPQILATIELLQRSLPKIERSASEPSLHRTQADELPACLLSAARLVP

biological target: ARAF (UniProt P10398); assay: kinase-Nluc reporter destabilization hit call (1 = scored as downregulated) (binary); higher = compound decreases kinase abundance; conditions: K562; 2-18 h

kinase-Nluc reporter destabilization hit call, inactive:
O=S(=O)(c1cccc2cnccc12)N1CCNCC1 (10 µM) 0, COc1cc(C(C)=O)cc(OC)c1O [Acetosyringone] (10 µM) 0, CCOc1c([C@H](C)n2nc(C)c3c(N)ncnc32)cc(Cl)c(F)c1[C@@H]1CNC(=O)C1 [Parsaclisib (hydrochloride)] (10 µM) 0, CC[C@H](C)[C@H](NC(=O)[C@H](CCC(=O)O)NC(=O)[C@H](CCCN=C(N)N)NC(=O)[C@H](CCCN=C(N)N)NC(=O)[C@@H](N)CCCCN)C(=O)N[C@@H](CC(C)C)C(=O)N[C@@H](CO)C(=O)N[C@@H](CCCN=C(N)N)C(=O)N[C@@H](CCCN=C(N)N)C(=O)N1CCC[C@H]1C(=O)N[C@@H](CO)C(=O)N[C@@H](Cc1ccc(O)cc1)C(=O)N[C@@H](CCCN=C(N)N)C(=O)O [CREBtide] (10 µM) 0, O=C(O)CCc1ccc(NCc2cccc(Oc3ccccc3)c2)cc1 (10 µM) 0, O[C@H]1CC[C@H](Nc2ncc3nc(Nc4c(F)cc(F)cc4F)n([C@H]4CCOC4)c3n2)CC1 [Tanzisertib] (10 µM) 0, Oc1ccccc1C(=S)N1CCCC1 (10 µM) 0, CC[C@@H]1C(=O)N(C)c2cnc(Nc3ccc(C(=O)N[C@H]4CC[C@H](N5CCN(CC6CC6)CC5)CC4)cc3OC)nc2N1C(C)C [Volasertib] (2.5 µM) 0, C[C@@H]1O[C@@H](OC[C@H]2O[C@@H](Oc3cc(O)c4c(c3)O[C@H](c3ccc(O)cc3)CC4=O)[C@H](O)[C@@H](O)[C@@H]2O)[C@H](O)[C@H](O)[C@H]1O [Narirutin] (10 µM) 0, CCc1ccc(C(=O)COc2ccc(CC3SC(=O)NC3=O)cc2)nc1 (stereo not given) (10 µM) 0, Cc1ccc(-c2ccc3c(ccc4sc5c(c43)NC[C@@H](C)NC5=O)n2)cn1 (10 µM) 0, CC[C@H](Nc1ncnc2[nH]cnc12)c1oc2ccccc2c(=O)c1-c1cccc(F)c1 [Tenalisib] (10 µM) 0, CCCC(=O)Nc1nc2c(ncn2[C@@H]2O[C@@H]3COP(=O)(O)O[C@H]3[C@H]2OC(=O)CCC)c(=O)[nH]1 [Dibutyryl-cGMP (sodium)] (10 µM) 0, CC(C)c1cnn2c(NCc3ccccc3-n3cccn3)nc(OC3CCCNC3)nc12 (stereo not given) (2.5 µM) 0, OCCN(CCO)c1ccc(C(c2ccc(Cl)cc2)c2ccc(N(CCO)CCO)cc2)cc1 (10 µM) 0, CCCCNC(=N)NC(=N)N [Buformin (hydrochloride)] (2.5 µM) 0, Fc1c(Br)cccc1Nc1ncnc2cc3c(cc12)OCCO3 (2.5 µM) 0, Cc1cc(Nc2nc(N[C@@H](C)c3ncc(F)cn3)ncc2Cl)[nH]n1 (10 µM) 0, Cc1cc(Nc2cc(CN3CCOCC3)c3nc(C)c(Cc4ccc(Cl)cc4F)n3n2)n[nH]1 [Gandotinib] (2.5 µM) 0, COc1cc(N2CCC(N(C)C)CC2)ccc1Nc1ncc(Cl)c(Nc2ccccc2P(C)(C)=O)n1 (2.5 µM) 0, Nc1[nH]c(=O)nc2c1ncn2[C@@H]1O[C@H](CO)[C@@H](O)[C@H]1O [Crotonoside] (10 µM) 0, Cn1cc(-c2ccc(F)c(C(F)(F)F)c2)nc1C1CCN(c2ncnc3[nH]ncc23)CC1 (10 µM) 0, CCOc1ccccc1C=C1C(=O)Nc2ccccc21 (10 µM) 0, CC(C)(C)C(=O)N1N=CC[C@H]1c1ccccc1 (10 µM) 0, COc1ccc(CCNc2ncc3c(=O)n(-c4cccc(F)c4)c(=O)[nH]c3n2)cc1OC (2 µM) 0, Cc1ccc(-c2nn(C(C)(C)CNC(=O)c3ccncc3)c3ncnc(N)c23)cc1 (2.5 µM) 0, CNC(=O)c1ccc(-c2cnc3cnc(-c4ccccc4)cn23)cc1 (10 µM) 0, CCn1nc(C2CCN(C(=O)CCO)CC2)nc1-c1cnc(N)c(-c2nnc(C(C)(C)C)o2)n1 (10 µM) 0, CCCCCCCC/C=C\CCCCCCCC(=O)NCC(=O)O [N-Oleoyl glycine] (10 µM) 0, CC1(COc2ccc3c(c2)ncn3-c2ccc3cccc(N4CCC(N)CC4)c3n2)COC1 [Crenolanib] (2.5 µM) 0
